Measurements: patent publication US12486239B2, “Benzotriazole compound, light absorber, and resin composition” (MITSUI CHEMICALS, INC., priority 2019, dated 2025)
At least one compound was matched to its structure with a doubt left.

Experiment: Maximum absorption wavelength and gram absorption coefficient, toluene solution 0.01 g/L (first embodiment)
Assay type: physicochemical
Conditions: optical path length 10 mm
Procedure: The maximum absorption wavelength of the benzotriazole compound of the first embodiment is measured using a spectrophotometer (for example, Shimadzu Spectrophotometer UV-1600 manufactured by Shimadzu Corporation) at an optical path length of 10 mm using a toluene solution having a concentration of 0.01 g/L.
In Examples according to the first embodiment, the maximum absorption wavelength and the gram absorption coefficient of the benzotriazole compound were measured using a Shimadzu Spectrophotometer UV-1600 manufactured by Shimadzu Corporation at an optical path length of 10 mm using a toluene solution having a concentration of 0.01 g/L.

SMILES: CCN(CC)c1ccc(-n2nc3ccc(Cl)cc3n2)c(O)c1 [Compound (15)]
- gram absorption coefficient: 6.66×10^4 g/mL·cm
- maximum absorption: 409 nm

SMILES: Oc1cc(Nc2ccccc2)ccc1-n1nc2ccc(Cl)cc2n1 [Compound (21)]
- gram absorption coefficient: 1.05×10^5 g/mL·cm
- maximum absorption: 388.5 nm
